{"source": "the supplement of paper PMC12819154", "about": "“High-throughput peptide-centric local stability assay extends protein–ligand identification to membrane proteins, tissues and bacteria” (Nature Structural & Molecular Biology, 2025)", "note": "The list shows a part of the results. Small differences around the control level are noise.", "data": [{"compound": "CC1(C)S[C@@H]2[C@H](NC(=O)[C@H](N)c3ccccc3)C(=O)N2[C@H]1C(=O)O [ampicillin]", "assay": "log2 fold change of tryptic peptide abundance, ligand vs vehicle (limited proteolysis) (log2 ratio); higher = more trypsin-susceptible (destabilized)", "conditions": "ligand concentration: 10 uM; sample: E. coli crude lysate", "values": [{"target": "UniProt P46122 (peptide sequence: IHDIQPVMQ, peptide start residue: 171)", "log2 fold change": -0.101}, {"target": "UniProt P52613 (peptide sequence: QSTAALLAENR, peptide start residue: 118)", "log2 fold change": 0.497}, {"target": "UniProt P75809 (peptide sequence: KYDDAMK, peptide start residue: 117)", "log2 fold change": 0.471}, {"target": "UniProt P75783 (peptide sequence: ELIDQLR, peptide start residue: 64)", "log2 fold change": 0.197}, {"target": "UniProt P75831 (peptide sequence: VKEGFDSAEAEQQLTR, peptide start residue: 476)", "log2 fold change": 0.132}, {"target": "UniProt P75849 (peptide sequence: LAALVDPGGDAEK, peptide start residue: 25)", "log2 fold change": -0.185}, {"target": "UniProt P75736 (peptide sequence: DLVNDHNIIQVDMR, peptide start residue: 38)", "log2 fold change": 0.311}, {"target": "UniProt P55135 (peptide sequence: ACLGSLQAMR, peptide start residue: 178)", "log2 fold change": 0.228}, {"target": "UniProt P61887 (peptide sequence: IACLEEIAWR, peptide start residue: 248)", "log2 fold change": -0.228}, {"target": "UniProt P75745 (peptide sequence: QSGISHCGALDMPALR, peptide start residue: 23)", "log2 fold change": -0.129}, {"target": "UniProt P52076 (peptide sequence: TVHGIGYTLGEK, peptide start residue: 208)", "log2 fold change": -0.236}, {"target": "UniProt P52132 (peptide sequence: FGAANLIR, peptide start residue: 8)", "log2 fold change": 0.0553}, {"target": "UniProt P52627 (peptide sequence: HSQTHCAHCR, peptide start residue: 20)", "log2 fold change": 0.407}, {"target": "UniProt P52126 (peptide sequence: SIDKFTHGNIK, peptide start residue: 416)", "log2 fold change": 0.805}, {"target": "UniProt P75862 (peptide sequence: YLKPQMPK, peptide start residue: 87)", "log2 fold change": 0.23}, {"target": "UniProt P75728 (peptide sequence: LVIGADGANSQVR, peptide start residue: 160)", "log2 fold change": 0.224}, {"target": "UniProt P63201 (peptide sequence: MYTSESLIK, peptide start residue: 162)", "log2 fold change": -0.12}, {"target": "UniProt P52130 (peptide sequence: IIDEQDVPTHILSK, peptide start residue: 80)", "log2 fold change": -0.33}, {"target": "UniProt P46139 (peptide sequence: LQELADHNMYQAK, peptide start residue: 387)", "log2 fold change": 0.113}, {"target": "UniProt P56256 (peptide sequence: CDLCWHR, peptide start residue: 118)", "log2 fold change": 0.156}, {"target": "UniProt P64636 (peptide sequence: AVLREDTIPFLEALKASGK, peptide start residue: 92)", "log2 fold change": 0.195}, {"target": "UniProt P75737 (peptide sequence: ELTYLHNMSAQEK, peptide start residue: 84)", "log2 fold change": -0.203}, {"target": "UniProt P52108 (peptide sequence: ALHFGTLTIDPINR, peptide start residue: 138)", "log2 fold change": 0.169}, {"target": "UniProt P69829 (peptide sequence: MGSTGIGNGIAIPHGKLEEDTLR, peptide start residue: 60)", "log2 fold change": 0.299}, {"target": "UniProt P46068 (peptide sequence: HALTNTVINLCHCTLLHDR, peptide start residue: 186)", "log2 fold change": 0.289}, {"target": "UniProt P52636 (peptide sequence: NAESCIDCGK, peptide start residue: 247)", "log2 fold change": 0.531}, {"target": "UniProt P69789 (peptide sequence: LYSKAEYK, peptide start residue: 48)", "log2 fold change": -0.00545}, {"target": "UniProt P75793 (peptide sequence: VFLPQEK, peptide start residue: 481)", "log2 fold change": 0.0631}, {"target": "UniProt P75800 (peptide sequence: AILGAEALCR, peptide start residue: 557)", "log2 fold change": 0.441}, {"target": "UniProt P68398 (peptide sequence: EVPVGAVLVHNNR, peptide start residue: 27)", "log2 fold change": -0.344}, {"target": "UniProt P46890 (peptide sequence: AEQHLAGQIFSGLTR, peptide start residue: 143)", "log2 fold change": 0.169}, {"target": "UniProt P75682 (peptide sequence: SNIIGIKDTIDSVAHLR, peptide start residue: 161)", "log2 fold change": -0.245}, {"target": "UniProt P56614 (peptide sequence: GGSGNFAEDRER, peptide start residue: 6)", "log2 fold change": -0.171}]}]}
